Laboratory results: PubChem BioAssay AID652272 (Drosophila RNAi Screening Center, 2013)

Assay: 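Genes whose knock-down decreases or increases Hedgehog reporter output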 (primary screen)
Cells: Drosophila clone 8 (Cl8) cells
Reagents: long dsRNA against Drosophila genes
Measured: 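Plate reader light from a firefly reporter under a ptc promoter fragment that responds to Hedgehog, with Renilla light as transfection reference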
Scale: firefly Hh reporter signal: higher = more ptc reporter light; Renilla reference signal: higher = more Renilla control light
Active means: 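Hit when the z-score averaged over two replicates is under -2 or over +3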
Meaning of the calls: active = hit: reporter lowered or raised; inactive = not a hit
The deposit covers about 21,000 reagents; this is a random part of those with a known target gene and a result. Over the whole deposit, 503 (2.4%) are marked active. 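Raw plate light values, not normalised; calls rest on replicate z-scores that were not deposited; hits include reporter decreases as well as increases.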 Names joined by + are all predicted targets of the reagent. Not stated in the record: the amount of reagent, the time to read-out.

| predicted target | dsRNA | firefly Hh reporter signal, replicate 1 | firefly Hh reporter signal, replicate 2 | firefly Hh reporter signal, replicate 3 | Renilla reference signal, replicate 1 | Renilla reference signal, replicate 2 | Call |
| --- | --- | --- | --- | --- | --- | --- | --- |
| CG11470 | DRSC14313 | 74882 | 1.03e5 | – | 2010 | 3027 | inactive |
| CG10561 | DRSC02068 | 63500 | 73476 | – | 2796 | 3495 | inactive |
| Tango9 | DRSC14173 | 1.37e5 | 1.03e5 | – | 5142 | 4336 | inactive |
| RpL10 | DRSC11947 | 22649 | 37274 | – | 1464 | 1943 | active |
| CG42586 + CG31775 | DRSC01413 | 95852 | 1.50e5 | – | 2848 | 7032 | inactive |
| phtm | DRSC20237 | 55264 | 2.00e5 | – | 1344 | 7237 | inactive |
| CG32369 | DRSC10042 | 44374 | 58633 | – | 5355 | 3755 | inactive |
| CG32369 | DRSC10834 | 1.62e5 | 1.05e5 | – | 6599 | 4297 | inactive |
| CG4970 | DRSC02796 | 1.11e5 | 57963 | – | 2880 | 5398 | inactive |
| CG7720 | DRSC16306 | 1.23e5 | 97526 | – | 3948 | 3546 | inactive |
| CG7720 | DRSC16307 | 5.10e5 | 71269 | – | 3116 | 3116 | inactive |
| CG2519 | DRSC12312 | 1.11e5 | 56096 | – | 4330 | 2101 | inactive |
| Vm34Ca | DRSC03475 | 60537 | 50740 | – | 2284 | 4877 | inactive |
| Cht5 | DRSC16470 | 2.01e5 | 1.35e5 | – | 7104 | 5181 | inactive |
| CG11286 | DRSC14293 | 58765 | 91240 | – | 2091 | 2432 | inactive |
| GEFmeso | DRSC06748 | 90486 | 78316 | – | 3757 | 3415 | inactive |
| GEFmeso | DRSC06940 | 1.05e5 | 53120 | – | 2800 | 4057 | inactive |
| CG17202 | DRSC15194 | 83252 | 96345 | – | 2320 | 14388 | inactive |
| Gmer | DRSC04376 | 1.08e5 | 58338 | – | 4256 | 2403 | inactive |
| Prdm13 | DRSC09970 | 74077 | 66610 | – | 8347 | 5558 | inactive |
| trk | DRSC03625 | 81056 | 41355 | – | 2181 | 4512 | inactive |
| CG12662 | DRSC17865 | 62960 | 2.13e5 | – | 2232 | 9056 | inactive |
| CG17134 | DRSC02583 | 82285 | 56807 | – | 2525 | 5781 | inactive |
| l(3)72Dp | DRSC10477 | 1.18e5 | – | – | 5763 | 3789 | inactive |
| aurA | DRSC16905 | 99621 | 1.01e5 | – | 4305 | 2137 | inactive |
| CG33689 | DRSC09424 | 2.42e5 | – | – | 5779 | – | inactive |
| Cks85A | DRSC16562 | 82864 | 1.50e5 | – | 3111 | 6640 | inactive |
| CG9395 | DRSC03218 | 94394 | 55082 | – | 2213 | 4707 | inactive |
| Or2a | DRSC18690 | 74832 | 1.99e5 | – | 1450 | 7842 | inactive |
| CG32053 | DRSC10683 | 81347 | 74641 | – | 3904 | 2897 | inactive |
| Nup107 | DRSC01999 | 68732 | 26605 | – | 2224 | 2883 | inactive |
| CG32137 | DRSC10271 | 54859 | 41816 | 30864 | 5328 | 1296 | inactive |
| CG32137 | DRSC10272 | 67245 | 56326 | 30896 | 4985 | 1301 | inactive |
| ntc | DRSC08166 | 83527 | 82034 | – | 3738 | 3088 | inactive |
| Brd | DRSC09685 | 80720 | – | – | 1811 | 2457 | inactive |
| CG17047 | DRSC06648 | 1.16e5 | 70579 | – | 3293 | 5322 | inactive |
| CG9067 | DRSC07328 | 1.51e5 | 65920 | – | 3897 | 5604 | inactive |
| CG30394 | DRSC04074 | 84119 | 54315 | – | 2694 | 5305 | inactive |
| CG30394 | DRSC04260 | 62804 | 45845 | – | 1696 | 4234 | inactive |
| Cbs | DRSC20553 | 92912 | 1.20e5 | – | 2346 | 2451 | inactive |
| CG14151 | DRSC10153 | 93307 | 65351 | 60870 | 4521 | 4852 | inactive |

Continued, starting with the last 5 of the part before.
| predicted target | dsRNA | firefly Hh reporter signal, replicate 1 | firefly Hh reporter signal, replicate 2 | firefly Hh reporter signal, replicate 3 | Renilla reference signal, replicate 1 | Renilla reference signal, replicate 2 | Call |
| --- | --- | --- | --- | --- | --- | --- | --- |
| CG9067 | DRSC07328 | 1.51e5 | 65920 | – | 3897 | 5604 | inactive |
| CG30394 | DRSC04074 | 84119 | 54315 | – | 2694 | 5305 | inactive |
| CG30394 | DRSC04260 | 62804 | 45845 | – | 1696 | 4234 | inactive |
| Cbs | DRSC20553 | 92912 | 1.20e5 | – | 2346 | 2451 | inactive |
| CG14151 | DRSC10153 | 93307 | 65351 | 60870 | 4521 | 4852 | inactive |
| CG33233 | DRSC08239 | 74481 | 51632 | – | 2342 | 4151 | inactive |
| E(spl)mbeta-HLH | DRSC16697 | 1.33e5 | 1.09e5 | – | 2948 | 2871 | inactive |
| CG8728 | DRSC07251 | 56185 | 55009 | – | 2507 | 2164 | inactive |
| CG6912 | DRSC16132 | 82080 | 1.41e5 | – | 3409 | 4444 | inactive |
| Yip1d1 | DRSC02166 | 1.42e5 | 73707 | – | 3952 | 6518 | inactive |
| CG42552 (retired record) | DRSC11512 | 1.79e5 | – | – | 3820 | – | inactive |
| wal | DRSC07717 | 44992 | 42701 | – | 2071 | 1735 | inactive |
| PIP82 | DRSC18694 | 69915 | 1.51e5 | – | 2020 | 6472 | inactive |
| speck | DRSC04608 | 1.17e5 | 49114 | – | 4306 | 2135 | inactive |
| PDZ-GEF | DRSC03231 | 1.40e5 | 46987 | – | 3472 | 4484 | inactive |
| egg | DRSC04119 | 1.12e5 | 78192 | – | 4275 | 2230 | inactive |
| CSN1b | DRSC11108 | 1.05e5 | 77334 | – | 3652 | 2881 | inactive |
| CG3515 | DRSC00609 | 89096 | 66145 | – | 2608 | 1888 | inactive |
| Acbp4 | DRSC11023 | 48887 | 61673 | – | 5553 | 4358 | inactive |
| CG40583 (retired record) | DRSC20938 | 5.86e5 | 1.59e5 | – | 31976 | 4132 | inactive |
| CG2887 | DRSC18235 | 71552 | 1.56e5 | – | 2077 | 6153 | inactive |
| Trs20 | DRSC10489 | 79318 | – | – | 2212 | 2264 | inactive |
| Debcl | DRSC04965 | 99146 | 76546 | – | 4713 | 3713 | inactive |
| Tim8 | DRSC20291 | 1.23e5 | 4.05e5 | – | 4245 | 13481 | inactive |
| Trpml + CG42638 | DRSC11032 | 75548 | 69013 | – | 3127 | 3078 | inactive |
| CG1902 | DRSC06798 | 66812 | 59317 | – | 2939 | 2904 | inactive |
| CG7408 | DRSC10841 | 87420 | – | – | 3348 | 2560 | inactive |
| PIG-B | DRSC08216 | 1.43e5 | 6.66e5 | 1.61e5 | 6571 | 38048 | inactive |
| CG1387 | DRSC17904 | 83410 | 79715 | – | 2052 | 1684 | inactive |
| Zpr1 | DRSC18432 | 95216 | 79008 | – | 2272 | 1911 | inactive |
| aay | DRSC11320 | 99907 | 61773 | – | 4357 | 2581 | inactive |
| Sec61gamma | DRSC19570 | 72440 | 1.92e5 | – | 2656 | 10864 | inactive |
| wds | DRSC18852 | 81587 | 1.66e5 | – | 2609 | 5067 | inactive |
| Mvd | DRSC20096 | 95763 | 64604 | – | 2339 | 1604 | inactive |
| CG32199 | DRSC09990 | 1.05e5 | – | – | 4395 | 2928 | inactive |
| Hsp27 | DRSC11190 | 1.53e5 | 65844 | – | 6268 | 2860 | inactive |
| ND-51L1 | DRSC06072 | 77787 | 42520 | – | 2003 | 2951 | inactive |
